PubChem BioAssay AID1671195 – Yale University – 2021

Purpose: 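Genes whose knockdown alters LDL uptake in liver cancer cells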 (primary screen)
System: human Huh7 hepatoma cells
Knock-down reagent: siRNA pool against human genes, 18 nM
Timing: about 2 to 2.5 days of knockdown, then 8 h LDL uptake
Treatment: DiI-labelled LDL at 30 µg/ml for 8 h, in lipoprotein-deficient serum medium
Detection: 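Fluorescent LDL signal imaged in cells, scaled to the plate median, robust z-score for each replicate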
Direction: robust z-score: higher = more LDL uptake after knockdown
Rule for the call: 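a gene counts as active if at least two replicate z-scores exceed ±2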
The deposit covers about 22,000 reagents; this is a random part of them. In the full data, about 1,510 (6.9%) were called active. 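Active includes knockdowns raising or lowering LDL uptake; positive z-scores mean more uptake, negative mean less.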 Entries without a mark were called inactive. The numbers tell different reagents against one gene apart.

target | reagent | robust z-score, replicate 1 | robust z-score, replicate 2 | robust z-score, replicate 3
NOTUM (notum, palmitoleoyl-protein carboxylesterase) | 1 | -0.222 | 0.24 | 0.283
LVRN (laeverin) | 1 | -1.26 | -1.11 | -0.757
FAAH2 (fatty acid amide hydrolase 2) | 1 | 0.0416 | 0.538 | 0.297
CD81 (CD81 molecule) | 1 | -0.0757 | 0.493 | 0.686
FCGR1A (Fc gamma receptor Ia) | 1 | 0.19 | -0.255 | -0.842
OR6N1 (olfactory receptor family 6 subfamily N member 1) | 1 | 0.341 | 0.236 | 0.494
PSG3 (pregnancy specific beta-1-glycoprotein 3) | 1 | -0.27 | -0.305 | 0.397
IFNK (interferon kappa) | 1 | 2.06 | 0.718 | 2
C1D (C1D nuclear receptor corepressor) | 1 | 0.459 | 0.501 | -0.243
HTN1 (histatin 1) | 1 | -0.163 | 0.72 | 1.3
SRCAP (Snf2 related CREBBP activator protein) | 1 | 1.53 | 1.56 | 1.18
CD22 (CD22 molecule) | 1 | 0.516 | -0.0214 | -0.265
LOC442203 (retired record) | 1 | -1.4 | -2.02 | -1.82
RPS2P34 (ribosomal protein S2 pseudogene 34) | 1 | -1.89 | -2.01 | -1.75
LOC387887 (retired record) | 1 | -0.476 | -0.496 | -0.546
SLC35D2 | 1 | -0.397 | -0.523 | -0.606
SCARA5 (scavenger receptor class A member 5) | 1 | -1.06 | -0.86 | -1.58
ZNF408 (zinc finger protein 408) | 1 | -0.0736 | -0.121 | -0.404
DUSP16 (dual specificity phosphatase 16) | 1 | 0.00948 | 0.0384 | -0.29
AGO2 (argonaute RISC catalytic component 2) | 1 | -1.16 | -1.39 | -1.24
LILRP2 (leukocyte immunoglobulin-like receptor pseudogene 2) | 1 | 0.327 | 0.0706 | 0.102
NME5 (NME/NM23 family member 5) | 1 | -1.03 | -0.0788 | -1.32
SLC10A4 | 1 | 1.41 | 0.497 | 0.736
SLC9A7 | 1 | 0.451 | 0.126 | 0.846
OR1S2 (olfactory receptor family 1 subfamily S member 2) | 1 | 0.256 | 0.565 | 0.162
LOC400092 (retired record) | 1 | 0.792 | -0.164 | 0.0904
LOC339875 (retired record) | 1 | -1.69 | -1.66 | -1.61
KCNJ1 (potassium inwardly rectifying channel subfamily J member 1) | 1 | 0.419 | 0.675 | 0.526
ERMN (ermin) | 1 | 0.0873 | -0.88 | -0.34
LBP (lipopolysaccharide binding protein) | 1 | 0.816 | -0.824 | 0.316
KRABD1 (KRAB domain containing 1) | 1 | -0.197 | -0.234 | -0.322
KRABD1 (KRAB domain containing 1) | 2 | -0.764 | -2.94 | -0.441
RNF38 (ring finger protein 38) | 1 | 2.8 (active) | 2.29 | 1.81
VPS28 (VPS28 subunit of ESCRT-I) | 1 | -2.1 | 0.0728 | -1.7
ARHGEF39 (Rho guanine nucleotide exchange factor 39) | 1 | 1.72 | 0.679 | 1.57
UTP11 (UTP11 small subunit processome component) | 1 | -0.857 | -0.143 | 0.197
EPHA2 (EPH receptor A2) | 1 | 0.15 | 0.353 | 0.0503
ADAMTS18 (ADAM metallopeptidase with thrombospondin type 1 motif 18) | 1 | 2.14 (active) | 2.35 | 1.6
F11-AS1 (F11 antisense RNA 1) | 1 | 1.04 | 1.11 | 1.16
CERT1 (ceramide transporter 1) | 1 | 0.485 | 0.0732 | 0.477
RASSF4 (Ras association domain family member 4) | 1 | 0.297 | 0.196 | 0.357
ALDH3A2 (aldehyde dehydrogenase 3 family member A2) | 1 | -1.35 | -0.799 | -1.87
LOC441754 (retired record) | 1 | 1.03 | 0.497 | 0.634
KCNJ16 (potassium inwardly rectifying channel subfamily J member 16) | 1 | -0.618 | -0.254 | -0.403
SRXN1 (sulfiredoxin 1) | 1 | -1.53 | -1.02 | -0.372
CLLU1-AS1 (CLLU1 antisense RNA 1) | 1 | 0.537 | 0.41 | 0.167
FAM217A (family with sequence similarity 217 member A) | 1 | 1.66 | 2.2 | 1.82
CST2 (cystatin SA) | 1 | -0.355 | -1.02 | -0.391
PATJ (PATJ crumbs cell polarity complex component) | 1 | -0.0059 | 1.43 | 1.18
FAM89B (family with sequence similarity 89 member B) | 1 | -1.03 | 0.504 | -1.58
SPOCD1 (SPOC domain containing 1) | 1 | -0.285 | 0.0374 | -0.0677
ZCCHC14 (zinc finger CCHC-type containing 14) | 1 | -0.358 | 1.69 | -1.21
BTBD10 (BTB domain containing 10) | 1 | -1.11 | -0.107 | -0.795
APLNR (apelin receptor) | 1 | -1.73 | 1.18 | 1
CGN (cingulin) | 1 | -0.597 | -0.298 | -0.167
DEFB104A (defensin beta 104A) | 1 | 2.28 | 0.462 | 1.71
SPDYA (speedy/RINGO cell cycle regulator family member A) | 1 | -0.675 | 1.32 | 0.42
LCN12 (lipocalin 12) | 1 | 0.56 | 0.442 | 0.0971
UNK (unk zinc finger) | 1 | 3.01 (active) | 3.16 | 2.46
POTEE (POTE ankyrin domain family member E) | 1 | -0.903 | -1.83 | -1.36
RALGAPB (Ral GTPase activating protein non-catalytic subunit beta) | 1 | 0.0785 | -0.116 | 1.17
LOC391661 (retired record) | 1 | -1.01 | -1.38 | -1.48
LOC440373 (retired record) | 1 | 0.721 | 0.712 | 0.374
OLFM3 (olfactomedin 3) | 1 | 0.808 | 1.17 | 1.84
PEX12 (peroxisomal biogenesis factor 12) | 1 | -1.54 | -1.09 | -1.15
LTBP4 (latent transforming growth factor beta binding protein 4) | 1 | 1.66 | 1.35 | 0.437
LOC400025 (retired record) | 1 | 0.975 | 0.667 | 0.0748
LOC442626 (retired record) | 1 | 1.03 | 0.245 | -0.0925
